Values from PubChem BioAssay AID1508597 (Cure First, 2020).
This is a random part of the about 2,100 reagents, under one of the conditions tested. 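Calls flag viability under 80% in either arm, not effects specific to rucaparib; the reference for percent is not stated.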 A reagent listed more than once was tested more than once; the source does not tell the runs apart. The record does not give: the 100% reference.

Assay: 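Genes whose silencing sensitises or protects ovarian cancer cells against rucaparib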 (primary screen)
System: human ovarian carcinoma lines grown from tumours: OCI-P5x (papillary serous) and OCI-C5x (clear cell)
Reagents: siRNA pool against human genes, 1.25 pmol siRNA per well
Time to read-out: 72 h or 96 h, depending on the cell culture
Conditions: rucaparib 20 µM (about IC30) or vehicle, present until read-out
Rucaparib or vehicle: Vehicle
Cell line: OCI-C5x (clear cell)
Detection: 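ATP luminescence measured at 72 or 96 h according to the culture, then normalised and expressed as percent viability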
Scale: viability, normalised: higher = more viable cells remaining
Active means: 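Active when normalised viability falls below 80 percent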
Calls: active = viability under 80%; inactive = viability 80% or more

gene symbol | technical replicate | viability, normalised (%) | Outcome
KDM4A (lysine demethylase 4A) | 1 | 47.5 | active
KDM4A (lysine demethylase 4A) | 2 | 44.9 | active
KDM4A (lysine demethylase 4A) | 3 | 38.3 | active
DICER1 (dicer 1, ribonuclease III) | 1 | 55.4 | active
DICER1 (dicer 1, ribonuclease III) | 2 | 47.4 | active
DICER1 (dicer 1, ribonuclease III) | 3 | 44.9 | active
PCSK9 (proprotein convertase subtilisin/kexin type 9) | 1 | 37.2 | active
PCSK9 (proprotein convertase subtilisin/kexin type 9) | 2 | 32.2 | active
PCSK9 (proprotein convertase subtilisin/kexin type 9) | 3 | 36.7 | active
GNE | 1 | 84.1 | inactive
GNE | 2 | 63.3 | active
GNE | 3 | 70.7 | active
NONO (non-POU domain containing octamer binding) | 1 | 38.1 | active
NONO (non-POU domain containing octamer binding) | 2 | 37.7 | active
NONO (non-POU domain containing octamer binding) | 3 | 45.6 | active
SMARCAD1 (SNF2 related chromatin remodeling ATPase with DExD box 1) | 1 | 44.7 | active
SMARCAD1 (SNF2 related chromatin remodeling ATPase with DExD box 1) | 2 | 37.9 | active
SMARCAD1 (SNF2 related chromatin remodeling ATPase with DExD box 1) | 3 | 42.1 | active
PIM2 (Pim-2 proto-oncogene, serine/threonine kinase) | 1 | 123 | inactive
PIM2 (Pim-2 proto-oncogene, serine/threonine kinase) | 2 | 64.6 | active
PIM2 (Pim-2 proto-oncogene, serine/threonine kinase) | 3 | 56.5 | active
PIK3CA | 1 | 52.7 | active
PIK3CA | 1 | 43.6 | active
PIK3CA | 2 | 49.7 | active
PIK3CA | 2 | 49 | active
PIK3CA | 3 | 38 | active
PIK3CA | 3 | 46 | active
H2AC4 (H2A clustered histone 4) | 1 | 63.9 | active
H2AC4 (H2A clustered histone 4) | 2 | 48.7 | active
H2AC4 (H2A clustered histone 4) | 3 | 60.1 | active
ADCK1 (aarF domain containing kinase 1) | 1 | 64.7 | active
ADCK1 (aarF domain containing kinase 1) | 2 | 60.4 | active
ADCK1 (aarF domain containing kinase 1) | 3 | 56.5 | active
H4C6 (H4 clustered histone 6) | 1 | 41.6 | active
H4C6 (H4 clustered histone 6) | 2 | 45.8 | active
H4C6 (H4 clustered histone 6) | 3 | 46.8 | active
GCH1 (GTP cyclohydrolase 1) | 1 | 45.4 | active
GCH1 (GTP cyclohydrolase 1) | 2 | 59.4 | active
GCH1 (GTP cyclohydrolase 1) | 3 | 54.2 | active
KMT2C (lysine methyltransferase 2C) | 1 | 23.5 | active
KMT2C (lysine methyltransferase 2C) | 2 | 34.7 | active
KMT2C (lysine methyltransferase 2C) | 3 | 36.2 | active
RAI1 (retinoic acid induced 1) | 1 | 35 | active
RAI1 (retinoic acid induced 1) | 2 | 27.9 | active
RAI1 (retinoic acid induced 1) | 3 | 29.6 | active
TCF20 (transcription factor 20) | 1 | 19.1 | active
TCF20 (transcription factor 20) | 2 | 54.5 | active
TCF20 (transcription factor 20) | 3 | 49 | active
ADK (adenosine kinase) | 1 | 75.7 | active
ADK (adenosine kinase) | 2 | 60.4 | active
ADK (adenosine kinase) | 3 | 59.3 | active
DIDO1 (death inducer-obliterator 1) | 1 | 39.8 | active
DIDO1 (death inducer-obliterator 1) | 2 | 30.6 | active
DIDO1 (death inducer-obliterator 1) | 3 | 36.3 | active
MEN1 (menin 1) | 1 | 53.1 | active
MEN1 (menin 1) | 2 | 51.2 | active
MEN1 (menin 1) | 3 | 50.1 | active

Copied from the list.
RAI1 (retinoic acid induced 1), technical replicate 1, viability, normalised (%): 35
For “viability, normalised (%)”, PIM2 (Pim-2 proto-oncogene, serine/threonine kinase), technical replicate 1 is entered as 123
Result of TCF20 (transcription factor 20), technical replicate 1 under “viability, normalised (%)”: 19.1
Entry of DICER1 (dicer 1, ribonuclease III), technical replicate 1 under “Outcome”: active
H4C6 (H4 clustered histone 6), technical replicate 1, viability, normalised (%): 41.6
DIDO1 (death inducer-obliterator 1), technical replicate 3, viability, normalised (%) → 36.3
